This experiment addresses type 2 ryanodine receptor (RyR2) channel in cardiac SR membranes (pig (endogenous in porcine heart SR)). The experiment in a line: FRET or BRET; as a1, 30 nM Ca2+, SR pre-treated with 50 uM unlabeled DPc10 for 60 min; apparent affinity; only the binder purified. For orientation: Bioluminescence resonance energy transfer reports proximity on the nanometre scale.

No constants are given. Whether binding was seen depends on the method and setting. In cells and extracts the contact can be indirect. Some results given as binding are weak or reduced against the parent protein; the word gives no strength.

Take GFCPDHKAAMVLFLDRVYGIEVQDFLLHLLEVGFLP [DPc10 peptide, unlabeled]: the binding entry is “binds”.

The values above are taken from PMC10454150, “Molecular Mechanism of a FRET Biosensor for the Cardiac Ryanodine Receptor Pathologically Leaky State” (International Journal of Molecular Sciences, 2023).
